Data as given in PubChem BioAssay AID1259331 (Drosophila RNAi Screening Center, 2017).
Assay: 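Fly transmembrane-protein genes that affect zinc toxicity in cultured cells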 (primary screen). Cell system: Drosophila S2R+ cells. Knock-down reagent: long dsRNA against Drosophila genes. Time to read-out: 5 days (4 days knock-down, then 1 day zinc). Treatment: zinc chloride at 15 mM final level for 1 day. Read-out: 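Total cellular ATP measured by luciferase luminescence as a viability proxy, turned into Z scores from three plate copies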. Scale: mean Z score: higher = more ATP than other wells, better survival under zinc; ATP luminescence: higher = more ATP, more viable cells. Active means: 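Hit when the absolute Z score is greater than 1.5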. Calls: active = hit, ATP up or down; inactive = not a hit.
Shown is an unselected part of about 3,100 deposited reagents. Over the whole deposit, 126 (4.1%) got an active call. 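Calls are per reagent; zinc was so toxic that few knock-downs lowered ATP further, so most hits raise ATP.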 Raw values are not corrected between plates. A plus sign joins genes that one reagent is predicted to hit. Reagent sequences are not shown. The record does not give: the amount of reagent.

target | amplicon | mean Z score | ATP luminescence, replicate 1 | ATP luminescence, replicate 2 | Outcome
CG8008 (GeneID 35935) | DRSC07053 | 0.0785 | 31759 | 33010 | inactive
CG8008 (GeneID 35935) | DRSC39472 | -0.108 | 45508 | 55419 | inactive
Oatp33Ea (GeneID 34660) | DRSC02859 | -0.234 | 50172 | 55848 | inactive
Oatp33Ea (GeneID 34660) | DRSC26461 | 0.63 | 67114 | 69664 | inactive
CG7888 (GeneID 39232) | DRSC10926 | -0.658 | 25759 | 29805 | inactive
CG7888 (GeneID 39232) | DRSC39855 | -0.238 | 48423 | 57590 | inactive
Lcch3 + Ranbp16 | DRSC39860 | -0.484 | 52675 | 48149 | inactive
CG12531 (GeneID 32986) | DRSC19466 | -0.0123 | 44531 | 41051 | inactive
CG12531 (GeneID 32986) | DRSC27679 | 0.276 | 66034 | 59740 | inactive
CG8850 (GeneID 36331) | DRSC07287 | -0.011 | 79378 | 78846 | inactive
CG8850 (GeneID 36331) | DRSC25965 | 0.27 | 56671 | 63787 | inactive
Atet (GeneID 33636) | DRSC00263 | 0.000899 | 54819 | 40056 | inactive
Atet (GeneID 33636) | DRSC39890 | -0.374 | 46880 | 51818 | inactive
Nha1 (GeneID 33961) | DRSC02109 | 0.478 | 63256 | 62665 | inactive
Nha1 (GeneID 33961) | DRSC39661 | -0.158 | 57854 | 55865 | inactive
Or69a (GeneID 2768964) | DRSC11243 | -0.962 | 56256 | 45251 | inactive
Or69a (GeneID 2768964) | DRSC25967 | 0.118 | 54716 | 60448 | inactive
Indy-2 + CG33934 | DRSC15685 | -0.489 | 39096 | 36308 | inactive
Indy-2 + CG33934 | DRSC15686 | -0.29 | 35479 | 42071 | inactive
CG5078 (GeneID 40276) | DRSC11762 | -0.305 | 73186 | 54201 | inactive
CG1688 (GeneID 36005) | DRSC23207 | -0.414 | 41531 | 42885 | inactive
CNT2 (GeneID 35914) | DRSC07073 | 0.231 | 31595 | 35608 | inactive
CG32081 (GeneID 326194) | DRSC09861 | -0.128 | 72260 | 60392 | inactive
CG32081 (GeneID 326194) | DRSC39618 | 0.125 | 64165 | 63719 | inactive
CG31272 (GeneID 326130) | DRSC16058 | -0.616 | 38736 | 50343 | inactive
CG31272 (GeneID 326130) | DRSC37457 | -0.365 | 42165 | 43914 | inactive
CG9743 (GeneID 43593) | DRSC16552 | 0.453 | 74809 | 72277 | inactive
CG9743 (GeneID 43593) | DRSC28943 | 0.148 | 66754 | 60529 | inactive
Unc-115b + p24-2 | DRSC16492 | 0.213 | 44981 | 48783 | inactive
Tsp66E (GeneID 39017) | DRSC09683 | 0.809 | 89069 | 72328 | inactive
scb (GeneID 36692) | DRSC05542 | -0.147 | 39936 | 44548 | inactive
scb (GeneID 36692) | DRSC07678 | 0.0293 | 69498 | 67269 | inactive
Gr22b (GeneID 117492) | DRSC20911 | -0.283 | 39113 | 40980 | inactive
Desat1 (GeneID 117369) | DRSC23578 | 0.143 | 52624 | 58471 | inactive
CG14777 (GeneID 31099) | DRSC18563 | -0.27 | 60708 | 62457 | inactive
CG3106 (GeneID 31909) | DRSC18279 | -0.536 | 40845 | 39388 | inactive
CG3106 (GeneID 31909) | DRSC29465 | 0.0523 | 60958 | 63462 | inactive
CG10761 (GeneID 31749) | DRSC17753 | 0.128 | 69070 | 67269 | inactive
CG10761 (GeneID 31749) | DRSC27665 | -0.0348 | 56083 | 58265 | inactive
Serinc (GeneID 39827) | DRSC11296 | -0.305 | 27730 | 32033 | inactive
Pss (GeneID 40281) | DRSC11757 | -0.126 | 72834 | 57802 | inactive
Pss (GeneID 40281) | DRSC39436 | -0.318 | 43162 | 48887 | inactive
CG10081 (GeneID 37226) | DRSC05962 | 0.273 | 84541 | 77045 | inactive
CG10081 (GeneID 37226) | DRSC24787 | 0.119 | 51938 | 61386 | inactive
CG4313 (GeneID 31169) | DRSC18514 | -0.456 | 39526 | 43297 | inactive
CG4313 (GeneID 31169) | DRSC24627 | 0.62 | 65074 | 76942 | inactive
